Assay: Initial response current value of sensor for glucose solution
Conditions: glucose 1,000 mg/dL; additive conc. 1.0-5.0 mM

Row | Compound | Initial response current value (μA) Glucose conc.: 1,000 mg/dL
1 | c1nc[nH]n1 [1,2,4-Triazole] | 20 μA
2 | Cc1nccn1C [1,2-Dimethylimidazole] | 5.9 μA
3 | Nc1ncc[nH]1 [2-Aminoimidazole] | 17.9 μA
4 | Cc1ncc[nH]1 [2-Methylimidazle, 2-methylimidazole] | 15.9 μA
5 | Nc1n[nH]c(N)n1 [3,5-Diamino-1,2,4-triazole] | 25.7 μA
6 | Nc1nc[nH]n1 [3-Amino-1,2,4-triazole] | 27.3 μA
7 | OCc1nc[nH]c1CO [4,5-Bis(hydroxymethyl) imidazole, 4,5-bis(hydroxymethyl)imidazole] | 19.6 μA
8 | Nn1cnnc1 [4-Amino-1,2,4-triazole] | 23 μA
9 | N=C(N)NCCC[C@H](N)C(=O)O [Arginine, reference compound] | 18.8 μA
10 | NCCCCN [Butanediamine, reference compound] | 19.2 μA
11 | NCCN [Ethylenediamine, reference compound] | 21.9 μA
12 | NCCCCCCN [Hexanediamine, reference compound] | 20.5 μA
13 | NCCc1c[nH]cn1 [Histamine] | 23.1 μA
14 | N[C@@H](Cc1c[nH]cn1)C(=O)O [Histidine] | 16.7 μA
15 | NCCCC[C@H](N)C(=O)O [Lysine, reference compound] | 16.2 μA
16 | NCCCCCN [Pentanediamine, reference compound] | 18.9 μA
17 | Ethyleneamine [reference compound] | 11.5 μA
18 | Imidazole | 20.7 μA

Reference: patent US10761045B2, “Sensor, sensor system, method of manufacturing sensor, and method of measuring concentration of target substance” (PHC Holdings Corporation, priority 2010, dated 2020)
